By UniProt entry, the sequences of proteins in these tests, tags left out. Residues count along the entry.
UniProt O75417, 2-894 limits assumed: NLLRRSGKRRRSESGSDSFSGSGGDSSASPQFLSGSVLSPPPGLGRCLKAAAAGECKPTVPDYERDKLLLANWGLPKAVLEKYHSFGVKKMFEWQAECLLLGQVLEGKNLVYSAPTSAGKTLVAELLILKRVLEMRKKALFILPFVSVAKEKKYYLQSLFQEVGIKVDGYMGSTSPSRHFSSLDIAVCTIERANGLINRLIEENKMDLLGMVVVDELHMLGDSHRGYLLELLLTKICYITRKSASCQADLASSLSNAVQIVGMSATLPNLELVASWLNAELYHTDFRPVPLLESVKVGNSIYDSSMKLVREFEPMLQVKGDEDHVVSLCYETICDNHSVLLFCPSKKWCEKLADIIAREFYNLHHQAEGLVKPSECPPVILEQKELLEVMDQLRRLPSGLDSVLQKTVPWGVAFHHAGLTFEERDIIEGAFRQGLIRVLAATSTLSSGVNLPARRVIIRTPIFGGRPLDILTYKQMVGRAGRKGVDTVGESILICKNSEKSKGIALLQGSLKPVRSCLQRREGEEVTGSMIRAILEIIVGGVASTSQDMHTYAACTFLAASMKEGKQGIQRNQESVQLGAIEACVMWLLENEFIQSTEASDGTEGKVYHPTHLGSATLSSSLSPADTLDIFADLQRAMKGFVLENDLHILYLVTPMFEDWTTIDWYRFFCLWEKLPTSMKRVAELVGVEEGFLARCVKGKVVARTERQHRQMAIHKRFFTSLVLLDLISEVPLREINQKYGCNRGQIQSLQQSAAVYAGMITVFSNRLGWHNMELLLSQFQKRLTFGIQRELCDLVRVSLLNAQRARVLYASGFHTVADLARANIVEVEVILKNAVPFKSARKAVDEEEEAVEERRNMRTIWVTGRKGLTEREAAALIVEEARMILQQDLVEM

In US20260015360A1 (MOMA Therapeutics, Inc., priority 2023, published 2026):

Experiments:
[1] = molecular target: biotinylated Avi-POLΘ[2-894] (Homo sapiens, UniProt O75417); test: ATPase assay (ADP-Glo): POLΘ-mediated ATP hydrolysis; details: read-out: Biochemical ATPase ADPGlo IC50
DLD1 BRCA2 (−/−) cells = test: DLD1 viability assay (CellTiter-Glo, 7 days), DLD1 BRCA2 (−/−); assay type: cell-based; details: read-out: Viability IC50 (μM) DLD1 BRCA2 null
DLD1 WT cells = test: DLD1 viability assay (CellTiter-Glo, 7 days), DLD1 WT; assay type: cell-based; details: read-out: Viability IC50 (μM) DLD1 WT

SMILES	IC50 [1]	IC50 (DLD1 BRCA2 (−/−) cells)	IC50 (DLD1 WT cells)
COc1ccc(C#N)cc1-c1cc(C)ncc1C(=O)Nc1nc2ncc(C(=O)N(C)C)nc2s1	0.001 to 0.015 µM	> 2 µM	> 10 µM
COc1ccccc1-c1cc(C)ncc1C(=O)Nc1nc2ccc(Cl)nc2s1	0.15 to 0.9 µM	–	–
Cc1cc(N2CCN(CC3CC3)C(=O)C2)c(C(=O)Nc2nc3ncc(-c4ccncc4)cc3s2)cn1	0.15 to 0.9 µM	–	–
COc1cc2c(cc1-c1cc(C)ncc1C(=O)Nc1nc3ncc(-c4ccncc4)nc3s1)CCNC2=O	0.001 to 0.015 µM	0.5 to 2 µM	> 10 µM
COc1cnc(Cl)cc1-c1cc(C)ncc1C(=O)Nc1nc2ncc(-c3ccc(Cl)cc3)nc2s1	0.001 to 0.015 µM	0.001 to 0.1 µM	> 10 µM

The match of structure and compound is tentative.
